40 sequences from article PMC7862700 can be followed below.

The list shows a part of the results, in another mix than the full data. For some assays here: At the low end of the ranking the order means little. This is one part of the list. For some assays here: The source does not settle which construct or isoform was used.

One experiment addresses T1, ETS1 (UniProt P14921).
T1 sequence: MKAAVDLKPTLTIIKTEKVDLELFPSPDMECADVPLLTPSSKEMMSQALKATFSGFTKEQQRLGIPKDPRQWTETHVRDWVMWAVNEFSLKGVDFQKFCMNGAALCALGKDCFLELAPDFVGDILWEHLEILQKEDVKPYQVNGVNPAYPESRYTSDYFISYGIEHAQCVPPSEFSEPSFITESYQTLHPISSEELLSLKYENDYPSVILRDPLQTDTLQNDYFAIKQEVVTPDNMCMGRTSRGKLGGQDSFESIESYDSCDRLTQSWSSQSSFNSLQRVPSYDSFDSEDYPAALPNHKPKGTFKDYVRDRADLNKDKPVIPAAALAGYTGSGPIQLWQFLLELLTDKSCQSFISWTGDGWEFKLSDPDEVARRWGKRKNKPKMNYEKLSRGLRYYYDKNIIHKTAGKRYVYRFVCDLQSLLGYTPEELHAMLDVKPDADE
Briefly: DAPPL (digital affinity profiling via proximity ligation, sequencing). To be noted: 10 mM Tris-HCl pH 7.5, 50 mM NaCl, 1 mM DTT, 4% glycerol, room temperature, 30 min; GST-TFs on glutathione beads, 16-mer random dsDNA library, 0.1% …; high values mean tight binding; double strand, one strand shown; scale: fold enrichment (6-mer frequency, TF over GST control).
CGTCCT gave a binding signal of 1.5.

ATGCTA: the binding signal worked out at 1.34.

Turning to CAGATG, the binding signal came out at 1.09.

Sequence GAAGTA showed a binding signal of 1.84.

For the sequence AGATAA, the binding signal stood at 1.03.

In turn, TCAAAT returned a binding signal of 1.05.

As for CCGGCT, the binding signal turned out to be 1.64.

CACATG: the binding signal came out at 1.12.

The sequence GGCCCT came in with a binding signal of 1.03.

Sequence CGCGCG registered a binding signal of 0.959.

TTGACG: the binding signal came to 1.11.

CACGCA displayed a binding signal of 1.09.

Sequence CCTGGC yielded a binding signal of 1.06.

As to CCCTGA, the binding signal came to 1.01.

As to TCAGCT, the binding signal stood at 1.02.

Sequence GACTTA showed a binding signal of 0.927.

The sequence CACATA returned a binding signal of 1.2.

ATTATC displayed a binding signal of 1.44.

Take TGGGTA: the binding signal amounted to 1.1.

On to GTTGGT, for which the binding signal is 0.84.

Regarding TTAGCC, the binding signal turned out to be 1.08.

AAGTAG gave a binding signal of 1.21.

CACCCA registered a binding signal of 1.12.

Take CACTGT: the binding signal came out at 1.17.

On to TATAAA, for which the binding signal worked out at 1.22.

TCCTGG registered a binding signal of 1.59.

In the case of AATGAA, the binding signal amounted to 1.16.

GTATCT gave a binding signal of 1.11.

With TGCCAC, the binding signal is 1.23.

As to CAGCAC, the binding signal came out at 1.04.

In turn, TTTCAA had a binding signal of 1.28.

Sequence ATGCGT yielded a binding signal of 1.04.

Take CCACAT: the binding signal is 1.24.

CCTAAT had a binding signal of 1.25.

Regarding GCTGCA, the binding signal was determined as 1.04.

With AGCCTA, the binding signal was 1.03.

Sequence CACCGG registered a binding signal of 1.05.

With ATAGTC, the binding signal was determined as 0.901.

Turning to TCAGCA, the binding signal is 1.08.

In turn, CCGCCG yielded a binding signal of 1.24.

A further experiment concerns the target T2, SPDEF (UniProt O95238).
T2 sequence: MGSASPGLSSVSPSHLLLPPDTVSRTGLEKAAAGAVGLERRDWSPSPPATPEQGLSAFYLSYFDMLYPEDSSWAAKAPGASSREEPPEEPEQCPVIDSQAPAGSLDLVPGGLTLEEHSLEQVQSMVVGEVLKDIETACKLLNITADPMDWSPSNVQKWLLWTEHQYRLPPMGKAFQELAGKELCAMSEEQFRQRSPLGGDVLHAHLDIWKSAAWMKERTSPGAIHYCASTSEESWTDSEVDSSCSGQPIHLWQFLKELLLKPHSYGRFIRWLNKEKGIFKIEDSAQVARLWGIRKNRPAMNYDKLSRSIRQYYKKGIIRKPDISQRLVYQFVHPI
Described as above. The conditions noted are these: 10 mM Tris-HCl pH 7.5, 50 mM NaCl, 1 mM DTT, 4% glycerol, room temperature, 30 min; GST-TFs on glutathione beads, 16-mer random dsDNA library, 0.1% …; high values mean tight binding; double strand, one strand shown; scale: fold enrichment (6-mer frequency, TF over GST control).
As for CGTCCT, the binding signal is 1.56.

The sequence ATGCTA returned a binding signal of 1.23.

With CAGATG, the binding signal stood at 0.985.

GAAGTA gave a binding signal of 2.1.

AGATAA gave a binding signal of 0.996.

In turn, TCAAAT yielded a binding signal of 1.11.

CCGGCT had a binding signal of 2.32.

Regarding CACATG, the binding signal was found to be 0.935.

Consider GGCCCT, for which the binding signal stood at 0.927.

With CGCGCG, the binding signal turned out to be 0.965.

TTGACG gave a binding signal of 0.945.

In the case of CACGCA, the binding signal worked out at 0.989.

CCTGGC had a binding signal of 0.957.

Take CCCTGA: the binding signal turned out to be 0.946.

The sequence TCAGCT showed a binding signal of 0.99.

GACTTA: the binding signal amounted to 0.902.

CACATA gave a binding signal of 1.11.

Regarding ATTATC, the binding signal stood at 1.34.

As to TGGGTA, the binding signal amounted to 0.967.

For the sequence GTTGGT, the binding signal came out at 0.935.

With TTAGCC, the binding signal is 1.

With AAGTAG, the binding signal is 1.07.

For the sequence CACCCA, the binding signal was 0.995.

Turning to CACTGT, the binding signal was 1.11.

Consider TATAAA, for which the binding signal came to 1.21.

In the case of TCCTGG, the binding signal is 2.13.

Consider AATGAA, for which the binding signal stood at 1.04.

GTATCT returned a binding signal of 1.14.

TGCCAC: the binding signal came to 1.15.

In turn, CAGCAC returned a binding signal of 0.937.

As for TTTCAA, the binding signal was 1.16.

For the sequence ATGCGT, the binding signal amounted to 1.07.

CCACAT displayed a binding signal of 1.22.

As to CCTAAT, the binding signal is 1.36.

The sequence GCTGCA came in with a binding signal of 0.903.

AGCCTA registered a binding signal of 0.963.

CACCGG yielded a binding signal of 1.08.

Take ATAGTC: the binding signal worked out at 0.864.

TCAGCA gave a binding signal of 0.971.

The sequence CCGCCG yielded a binding signal of 1.34.
